According to patent US20070031415A1, “Regulation of interaction between rapl and rap1” (priority 2002, published 2007):
Results are given in words; binding and its absence hold for the method and conditions named. Some entries that bind do so weakly or less than the wild type.

Biological target: GTP-Rap1 (human)
Test: binding to GTP-Rap1, assay not detailed

binding: binds
B1: human p30 (RAPL), wild type (protein)
chain: MTVDSSMSSGYCSLDEELEDCFFTAKTTFFRNAQSKHLSKNVCKPVEETQRPPTLQEIKQKIDSYNTREKNCLGMKLSEDGTYTGFIKVHLKLRRPVTVPAGIRPQSIYDAIKEVNLAATTDKRTSFYLPLDAIKQLHISSTTTVSEVIQGLLKKFMVVDNPQKFALFKRIHKDGQVLFQKLSIADRPLYLRLLAGPDTEVLSFVLKENETGEVEWDAFSIPELQNFLTILEKEEQDKIQQVQKKYDKFRQKLEEALRESQGKPG
